# According to PubChem BioAssay AID540256 (National Center for Advancing Translational Sciences (NCATS), 2011):
# Among all 300,000 compounds or so, about 3,700 (1.2%) were called active. This list was built around the results that the source calls inconclusive (neither active nor inactive); the mix of calls is not that of the screen. Calls come from the whole dose curve; tested in HEK293 cells. Where the call is inconclusive, the potency comes from a doubtful curve fit.
# Assay: qHTS for Inhibitors of binding or entry into cells for Lassa Virus; note: nearly all actives have a fitted effect of over 50% in size
# Conditions: Lassa virus pseudotype entry inhibition, cell reporter; activity change, negative = inhibition: at 37.9 µM (top of the series) unless noted
# % is set by controls: 0 for no effect and ±100 for the full control effect; potency is the fitted concentration of half-maximal effect.
SMILES,"activity change, negative = inhibition",Potency
O=C(CSc1nnc(-c2ccncc2)o1)NCc1ccccc1,inactive: -2.09%,–
O=[n+]1cc(-c2ccccc2)n([O-])c2c1CCCCC2,inactive: 10.9%,–
CCOc1ccc(C(=O)N(Cc2ccc(C(C)C)cc2)Cc2ccco2)cc1,–,"inconclusive: 3.55 µM [inhibitor, partial curve, poor fit]"
O=C(Nc1nc(-c2ccccn2)cs1)c1ccco1,–,"inconclusive: 25.1 µM [inhibitor, partial curve, poor fit]"
COC(=O)c1ccc(Nc2nc(N3CCOCC3)nc(N3CCOCC3)n2)cc1,–,"inconclusive: 35.5 µM [inhibitor, partial curve, poor fit]"
Cc1cc(NC(=O)/C=C/c2ccccc2Cl)no1,inactive: 14.1%,–
CC1CCc2ccc(F)cc2N1S(=O)(=O)c1cccs1 (stereo not given),–,"inconclusive: 18.3 µM [inhibitor, partial curve]"
O=C(/C=C/Nc1cccc(C(F)(F)F)c1)c1ccc(Oc2ncccn2)cc1,inactive: -14.2%,–
CCOc1ccc(C(=O)C2CCN(CC(=O)Nc3ccccc3N3CCOCC3)CC2)cc1,–,active: 18.3 µM
COc1ccc(NC(=O)CN2CCN(c3ccccc3F)CC2)cc1,–,"inconclusive: 3.98 µM [inhibitor, full curve, poor fit]"
Cc1cc(NC(=O)CSc2nnc3c4c(C)c(C)sc4ncn23)no1,–,"inconclusive: 32.6 µM [inhibitor, single point]"
CCOC(=O)C1CCCN(C(=O)C2CCN(S(=O)(=O)c3ccc4ccccc4c3)CC2)C1 (stereo not given),–,"inconclusive: 35.5 µM [inhibitor, single point]"
CCCn1c2ccc(F)cc2c2nnc(SCCN3CCCCC3)nc21,–,"inconclusive: 35.5 µM [inhibitor, single point]"
Cc1ccc2c(CN3CCN(c4ccccc4)CC3)cc(=O)oc2c1,–,"inconclusive: 12.5 µM [inhibitor, full curve, poor fit]"
CC(C)COc1cccc(C(=O)Nc2ccc(S(=O)(=O)N3CCOCC3)cc2)c1,–,"inconclusive: 10.3 µM [inhibitor, partial curve, poor fit]"
O=C(O)c1cc(S(=O)(=O)NCCN2CCNC2=O)ccc1O,–,"inconclusive: 1.41 µM [activator, partial curve, poor fit]"
O=C(NC(=S)Nc1ccc(NC(=O)c2cccs2)cc1)c1cc2ccccc2o1,inactive: -4.83%,–
O=C(Nc1ccc(F)cc1F)NC1CCCc2ccccc21 (stereo not given),–,"inconclusive: 2.51 µM [inhibitor, full curve, poor fit]"
c1csc(-c2csc(-c3cccs3)n2)c1,–,"inconclusive: 13 µM [activator, partial curve, poor fit]"
CC(C)(C)OC(=O)N1CCC(c2c(C(=O)NCc3cccs3)cnn2-c2cccc(F)c2)CC1,–,"inconclusive: 3.98 µM [inhibitor, full curve]"
Cc1ccc(C)c(NC(=S)N2CCC(NC(=O)c3ccc(F)cc3)CC2)c1,–,"inconclusive: 0.562 µM [activator, full curve, poor fit]"
Cc1cc(C(=O)CSc2nc3ccccc3o2)c(C)n1C1CC1,–,"inconclusive: 29.1 µM [inhibitor, single point]"
Cc1cc(O)cc(C)c1C=Cc1cncc(C(=O)OC(C)(C)C)c1,–,active: 0.791 µM
O=C(c1ccc(F)cc1)N1CCc2c([nH]c3ccccc23)C1c1ccc(Cl)cc1 (stereo not given),–,"inconclusive: 7.94 µM [inhibitor, partial curve, poor fit]"

# Reprinted at random: four records from the list, in no set order.
SMILES,"activity change, negative = inhibition",Potency
O=C(Nc1nc(-c2ccccn2)cs1)c1ccco1,–,"inconclusive: 25.1 µM [inhibitor, partial curve, poor fit]"
O=C(c1ccc(F)cc1)N1CCc2c([nH]c3ccccc23)C1c1ccc(Cl)cc1 (stereo not given),–,"inconclusive: 7.94 µM [inhibitor, partial curve, poor fit]"
CCOc1ccc(C(=O)N(Cc2ccc(C(C)C)cc2)Cc2ccco2)cc1,–,"inconclusive: 3.55 µM [inhibitor, partial curve, poor fit]"
CC(C)(C)OC(=O)N1CCC(c2c(C(=O)NCc3cccs3)cnn2-c2cccc(F)c2)CC1,–,"inconclusive: 3.98 µM [inhibitor, full curve]"

# The list continues.

SMILES,"activity change, negative = inhibition",Potency
Cc1c(C(=O)N2CCCCC2)sc(NC(=O)C2CC2)c1C#N,inactive: 3.25%,–
Cn1nc(-c2ccccc2F)c2cc(C(=O)NCc3ccccc3Cl)sc21,–,"inconclusive: 7.08 µM [inhibitor, partial curve, poor fit]"
COc1ccc(NC(=O)CCc2nc(-c3ccc(C)cc3)no2)cc1Cl,inactive: 6.64%,–
COc1cccc(/C=N/NC(=O)c2cccc3ccccc23)c1OC,–,"inconclusive: 3.55 µM [inhibitor, single point]"
COC(=O)c1ccc(OC(=O)c2ccccc2F)cc1,inactive: -10.9%,–
CSc1nnc(-c2ccco2)c(-c2ccco2)n1,inactive: -1.01%,–
Cc1cc(CNC(=O)COc2ccc(F)cc2Cl)cc(C)c1O,–,"inconclusive: 11.2 µM [inhibitor, partial curve, poor fit]"
Cc1ccc(CNC(=O)Cc2ccc(-n3c(=O)[nH]c4ccsc4c3=O)cc2)cc1,–,"inconclusive: 10 µM [inhibitor, partial curve, poor fit]"
COc1cc2c(cc1OC)C(c1cccc(Cl)c1)CC(=O)N2 (stereo not given),–,"inconclusive: 35.5 µM [inhibitor, single point]"
O=C(NCCCO)c1ccc(CSc2nc3ccccc3[nH]2)cc1,inactive: 2.22% [at 46.1 µM],–
O=C(O)c1ccccc1C(=O)Nc1ccc(-n2ccc(C(F)(F)F)n2)cc1,inactive: 13.2% [at 46.1 µM],–
COc1ccc(CC(=O)N2CCc3cc(OC)c(OC)cc3C2COc2ccc(F)cc2)cc1 (stereo not given),–,"inconclusive: 2.51 µM [inhibitor, full curve]"
COc1cc2c(cc1OC)-c1nncn1C(C)(C)C2,–,"inconclusive: 3.66 µM [inhibitor, partial curve, poor fit]"
CC(/C=N/NC(=O)c1cc(-c2ccc(Cl)cc2)nc2ccccc12)=C\c1ccco1,–,"inconclusive: 8.2 µM [inhibitor, single point]"
Cc1ccc(C)c(NC(=O)CSc2nccn2-c2cccc(C)c2C)c1,–,"inconclusive: 11.2 µM [inhibitor, partial curve, poor fit]"
COc1ccc(Sc2nc(-c3ccccn3)ncc2OC)cc1,–,active: 20.6 µM
CCOc1[nH]n(-c2ccc(Cl)cc2)c(=O)c1C=Nc1ccc(OC)cc1,inactive: 1.82%,–
O=C(CCCn1c(=O)[nH]c2ccsc2c1=O)N1CCN(Cc2ccc3c(c2)OCO3)CC1,–,"inconclusive: 18.3 µM [inhibitor, partial curve]"
CC(=O)Nc1ccc(NC(=O)c2nc(S(=O)(=O)Cc3ccc(F)cc3)ncc2Cl)cc1,–,"inconclusive: 35.5 µM [inhibitor, single point]"
O=C(N/N=C/c1cn(-c2ccccc2)nc1-c1cc2ccccc2o1)c1cccnc1,–,"inconclusive: 10 µM [inhibitor, partial curve, poor fit]"
COc1ccc(CCC(=O)Nc2ccc(C)c([N+](=O)[O-])c2)cc1,inactive: 12.2%,–
Nc1ccn(C2OC(COC(=O)C34CC5CC(CC(C5)C3)C4)C(O)C2O)c(=O)n1 (stereo not given),inactive: 4.32%,–
COc1cc(/C=C(\C#N)c2nc3ccc(C)cc3[nH]2)ccc1OCc1ccc(C)cc1,–,"inconclusive: 8.91 µM [inhibitor, partial curve, poor fit]"
Cn1c(N)c(C(=O)c2ccc(F)cc2F)c(=O)n(C)c1=O,–,"inconclusive: 7.08 µM [activator, partial curve, poor fit]"

SMILES,"activity change, negative = inhibition",Potency
COc1cccc(CC(=O)N[C@@H](CCSC)c2nc3ccccc3[nH]2)c1,–,"inconclusive: 12.6 µM [inhibitor, single point]"
CCc1nn(C(CC)C(=O)NCc2ccc(OC)c(OC)c2)c(=O)c2cc3oc(C)cc3n12 (stereo not given),inactive: -0.148% [at 46.1 µM],–
CCN(CC)S(=O)(=O)c1cccc(NC(=O)c2ccccc2Br)c1,inactive: -17.6%,–
CCOC(=O)c1ccc(-c2ccc(C=O)o2)cc1,–,"inconclusive: 17.8 µM [inhibitor, single point]"
CC12CC3(C)CC(C)(C1)CC(C(=O)Nc1nn[nH]n1)(C2)C3,–,"inconclusive: 0.0411 µM [inhibitor, full curve, poor fit]"
CCOc1ccc(NC(=O)c2cc3cc4ccc(OC)cc4nc3o2)cc1,inactive: 13.1%,–
O=Nc1ccc2oc(=O)ccc2c1,–,"inconclusive: 25.9 µM [inhibitor, single point]"
CS(=O)(=O)N1CCN(c2ccccc2NC(=O)C(c2ccccc2)c2ccccc2)CC1,–,"inconclusive: 32.6 µM [inhibitor, single point]"
CCOC(=O)N1CCc2c(sc3c2C(=O)NC(c2ccc(N(C)C)cc2)N3)C1 (stereo not given),–,"inconclusive: 1 µM [activator, full curve, poor fit]"
Brc1ccc(-c2nc(-c3ccccn3)no2)o1,–,active: 8.91 µM
COc1ccc(-c2cccc(C(=O)N3CCOCC3)c2)cc1,inactive: 23.4%,–
COc1cccc(NC(=O)c2nc(SC)ncc2Cl)c1,inactive: -0.374% [at 46.1 µM],–
COc1ccc2cc(C(=O)C3CCCN(C(=O)c4cnccn4)C3)ccc2c1 (stereo not given),–,"inconclusive: 20 µM [inhibitor, single point]"
O=C1Nc2ccccc2Oc2cc([N+](=O)[O-])cc(Oc3ccccc3)c21,–,"inconclusive: 14.1 µM [inhibitor, single point]"
CCN(CC)CCNC(=O)C1CCN(C(=O)c2cnn(-c3ccccc3)c2-n2cccc2)CC1,inactive: 15.5% [at 46.1 µM],–
CCOc1ccc(CCNC(=O)c2ccc(S(=O)(=O)N3CCCC3)cc2)cc1OCC,–,"inconclusive: 25.1 µM [inhibitor, single point]"
COc1ccc(C(F)(F)F)cc1N/C=C/c1nnnn1-c1ccc(C)cc1,–,"inconclusive: 7.94 µM [inhibitor, partial curve]"
O=C(CCN1C(=O)c2ccccc2S1(=O)=O)Nc1nc2c(s1)CCCC2,–,"inconclusive: 0.164 µM [activator, full curve, poor fit]"
CCOC(=O)c1cn2nc(Oc3ccccc3)ccc2n1,–,"inconclusive: 3.55 µM [inhibitor, single point]"
Cc1ccc(-n2c(SCc3ccccc3F)nc3[nH]ncc3c2=O)cc1Cl,–,"inconclusive: 35.5 µM [inhibitor, single point]"
Cc1c(C(=O)Nn2cnnc2)oc2ccccc12,inactive: 8.11%,–
C/C(=N\NC(=O)CN1CCCCC1)c1cccc([N+](=O)[O-])c1,–,"inconclusive: 11.2 µM [activator, partial curve, poor fit]"
